# PubChem BioAssay AID1671190 (National Center for Advancing Translational Sciences (NCATS), 2021)
# Amino acid sequences for entries named in this document (tags omitted). A change or cut given only in a name is not applied to a line headed by its entry.
# UniProt P18054: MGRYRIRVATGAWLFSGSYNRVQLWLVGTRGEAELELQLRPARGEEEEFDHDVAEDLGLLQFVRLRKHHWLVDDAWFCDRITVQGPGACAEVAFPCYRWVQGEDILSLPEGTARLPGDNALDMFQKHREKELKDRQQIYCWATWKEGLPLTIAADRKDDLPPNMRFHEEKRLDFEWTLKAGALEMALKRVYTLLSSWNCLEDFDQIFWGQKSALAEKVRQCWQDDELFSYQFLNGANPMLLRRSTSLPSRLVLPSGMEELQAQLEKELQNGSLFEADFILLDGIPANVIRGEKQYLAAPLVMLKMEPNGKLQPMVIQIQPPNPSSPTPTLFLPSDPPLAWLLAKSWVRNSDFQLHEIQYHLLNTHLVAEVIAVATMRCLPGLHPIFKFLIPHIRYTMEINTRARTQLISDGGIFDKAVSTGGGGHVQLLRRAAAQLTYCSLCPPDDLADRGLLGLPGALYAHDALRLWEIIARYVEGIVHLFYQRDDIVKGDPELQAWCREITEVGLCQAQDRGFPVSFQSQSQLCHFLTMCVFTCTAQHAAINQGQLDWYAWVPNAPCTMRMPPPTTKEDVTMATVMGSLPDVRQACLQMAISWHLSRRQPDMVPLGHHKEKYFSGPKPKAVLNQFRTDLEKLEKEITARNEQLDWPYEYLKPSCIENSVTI
# “And” between values parts separate entries of the source, which are not always exact repeats. Equal entries are not always repeated. About 6,100 (1.1%) of roughly 580,000 compounds were called active. Inconclusive results, whose numbers are uncertain, are shown with a selection of clear calls. The call rests on the fitted dose curve; in most records, active means well fitted inhibition curve with a large enough effect; inconclusive means small, poorly fitted or top-dose-only effect, or another doubt; inactive means no such curve, though single readings can be large or run the other way. Potencies of inconclusive entries are doubtful fits and often do not repeat.
# Target: Polyunsaturated fatty acid lipoxygenase ALOX12 (Homo sapiens) (UniProt P18054)
# Experiment: Primary qHTS assay for inhibitors of human arachidonate 12S-lipoxygenase (ALOX12): Round 2
# Conditions: purified 12hLO, xylenol orange hydroperoxide absorbance; activity change, negative = inhibition: at 108 µM (top of the series) unless noted
# In short: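 Purified human 12hLO (150 nM final) in 25 mM Hepes, 0.01% Triton X-100, pH 7.0 was preincubated 15 min at room temperature with compound. Then 40 uM arachidonic acid was added, 30 min. Hydroperoxide was read by Fe-XO absorbance ratio 573/405 nm.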
# On the % scale 0 is the no-effect control and ±100 the full control effect; potency means the concentration at half of the fitted maximal effect.
Structure (SMILES),"activity change, negative = inhibition",Potency
O=C(c1cccs1)N1CCN(Cc2ccccc2)CC1,inactive: -4%,–
Cc1ccc(NCCC(=O)c2cccc([N+](=O)[O-])c2)cc1,–,"inconclusive: 79.4 µM [inhibitor, partial curve, poor fit]"
COc1cc(-c2nc(S(=O)(=O)c3ccc(Br)cc3)c(N3CCOCC3)o2)cc(OC)c1OC,–,"inconclusive: 7.08 µM [inhibitor, partial curve, poor fit]"
O=C(OCc1ncc(-c2ccccc2)o1)c1ccc(O)cc1,–,"inconclusive: 5.62 µM [inhibitor, full curve, poor fit]"
Nn1c(=S)[nH]nc(Cc2ccc(O)cc2)c1=O,–,"inconclusive: 14.1 µM [inhibitor, full curve]"
CCOC(=O)N1CCN(S(=O)(=O)c2ccc(C(=O)Nc3nc4c(s3)CC(C)CC4)cc2)CC1 (stereo unspecified),–,"inconclusive: 89.1 µM [inhibitor, partial curve, poor fit]"
COc1ccc(NC2CCCN(C(=O)CCc3cccc(F)c3)C2)cc1 (stereo unspecified),–,"inconclusive: 39.8 µM [inhibitor, partial curve]"
COc1ccc(CCNC(=O)C/C(C)=N/NC(=O)c2ccc([N+](=O)[O-])cc2Cl)cc1OC,–,"inconclusive: 141 µM [inhibitor, single point]"
COC(=O)c1ccc(S(=O)(=O)N2CCCC2c2cccn2C)cc1 (stereo unspecified),–,"inconclusive: 44.7 µM [inhibitor, partial curve, poor fit]"
N#CCOc1ccc2c(=O)c(-c3ccc(Cl)cc3)c(C(F)(F)F)oc2c1,inactive: -8.67%,–
CC(C)(CNC(=O)CCc1ncc(-c2ccccc2F)o1)N1CCOCC1,inactive: 18.9%,–
C=CCNC(=O)Nc1cc(C(=O)NC)ccc1Cl,inactive: -30.4%,–
COc1ccc(-c2nc3c(c(=O)[nH]2)CCN(S(=O)(=O)C2CC2)C3)cc1,–,"inconclusive: 56.2 µM [inhibitor, partial curve, poor fit]"
COC(=O)CC(N)c1ccc(OC)c2ccccc12 (stereo unspecified),–,"inconclusive: 50.1 µM [inhibitor, partial curve, poor fit]"
COc1ccc(/C(O)=C2\C(=O)C(=O)N(c3cc(C)on3)C2c2ccc(OC)c(OC)c2)cc1OC (stereo unspecified),–,"inconclusive: 31.6 µM [inhibitor, partial curve, poor fit]"
CC(NC(=O)CCc1c[nH]c2ccccc12)c1ccccc1 (stereo unspecified),–,inactive
CCOC(=O)/C(=N\Nc1cccc(Cl)c1)Sc1nnc(-c2ccc(OC)cc2)n1C,–,"inconclusive: 5.01 µM [inhibitor, full curve, poor fit]"
O=C1NN(c2ccccc2)C(=O)/C1=C/c1ccc(Sc2ccc(Cl)cc2)o1,–,active: 15.8 µM
CN(C)C(=O)CN(C)c1ncnc2sc3c(c12)CCCC3,–,"inconclusive: 31.6 µM [inhibitor, partial curve, poor fit]"
CN(C)CCN(C(=O)c1ccc2c(c1)OCCO2)c1nc2c(Cl)cccc2s1,–,"inconclusive: 44.7 µM [inhibitor, single point]"
COC(=O)CNC(c1ccccc1)c1cc(Br)ccc1NS(=O)(=O)c1ccc(C)cc1 (stereo unspecified),inactive: 1.98%,–
CC1CNCCN1S(=O)(=O)c1cccc2cnccc12 (stereo unspecified),–,"inactive and inconclusive: 44.7 µM [inhibitor, partial curve, poor fit]"

Structure (SMILES),"activity change, negative = inhibition",Potency
Cc1ccc(/C(C#N)=C\c2cccn2C)cc1,–,active: 44.7 µM
O=C(c1ccccc1)[C@@H]1[C@@H](C(=O)c2ccc(F)cc2)[C@@]2(C(=O)Nc3ccccc32)[C@H]2c3ccccc3C=CN12,–,"inconclusive: 22.4 µM [inhibitor, partial curve, poor fit]"
CC(CNc1ccc(Cl)cc1)(CNc1ccc(Cl)cc1)[N+](=O)[O-],–,"inconclusive: 50.1 µM [inhibitor, partial curve, poor fit]"
CCc1ccc(NC(=O)c2cc3n(n2)CC(c2ccc(Cl)cc2)OC3)cc1 (stereo unspecified),–,"inconclusive: 31.6 µM [inhibitor, full curve]"
CCOC(=O)/C(C#N)=N/Nc1ccccc1C#N,–,"inconclusive: 50.1 µM [inhibitor, partial curve, poor fit]"
CCOC(=O)C1=CN(CC(=O)Nc2ccc(C)cc2Cl)S(=O)(=O)N=C1C,inactive: 44.2%,–
CCCCCCCCS(=O)CCCCCCCO (stereo unspecified),inactive: -6.16%,–
Cc1noc([C@H]2CCN(Cc3cc(F)cc(F)c3)C[C@H]2NC(=O)C2CC2)n1,inactive: 75.4%,–
COc1ccc(-c2noc(CSc3nnc(C)n3-c3ccc(C)c(C)c3)n2)c(OC)c1,–,"inconclusive: 89.1 µM [inhibitor, partial curve, poor fit]"
Cc1ccc2onc(CC(=O)N3CCN(c4ccccc4)CC3)c2c1,–,"inconclusive: 126 µM [inhibitor, partial curve, poor fit]"
CN(C)S(=O)(=O)c1cccc(NC(=O)Cc2ccc(Cl)cc2)c1,–,"inconclusive: 100 µM [inhibitor, partial curve, poor fit]"
CC1=Nc2ncnn2C(c2ccccc2)/C1=N\O (stereo unspecified),inactive: -2.98%,–
O=C(NNC(=O)c1cc(S(=O)(=O)N2CCCCC2)ccc1Cl)c1ccccc1O,–,"inconclusive: 22.4 µM [inhibitor, partial curve]"
Cc1ccc(OCCN(C)C(=O)c2cnc3ccccc3n2)cc1,inactive: -5.65%,–
CCOc1ccc(NC(=O)C(C)n2c(=O)cc(C)c3c(C)nn(-c4ccccc4)c32)cc1 (stereo unspecified),–,"inconclusive: 89.1 µM [inhibitor, partial curve, poor fit]"
NS(=O)(=O)c1ccc(CCNC(=O)C2CCN(S(=O)(=O)c3ccc(Br)s3)CC2)cc1,–,"inconclusive: 100 µM [inhibitor, single point]"
O=C(c1cc(COc2c(F)cccc2F)on1)N1CCC(c2ccncc2)CC1,inactive: -18%,–
O=C(CCCc1c[nH]c2ccccc12)NCCC12CC3CC(CC(C3)C1)C2,–,"inconclusive: 44.7 µM [inhibitor, partial curve, poor fit]"
C[C@H]1COC(=O)[C@H](Cc2ccc(F)cc2)C/C=C\C[C@H](CC(=O)N(CCO)Cc2ccccc2)C(=O)N1,inactive: -4.36%,–
Cc1sc2ncnc(N3CCC(C(=O)NNC(=O)c4ccc(Cl)cc4)CC3)c2c1C,inactive: 1.31%,–
O=C(CSc1ccc2c(c1)OCCO2)c1ccc(Br)cc1,–,"inconclusive: 44.7 µM [inhibitor, partial curve, poor fit]"
COc1cccc(C(=O)n2nc(-c3cccnc3)nc2NCc2ccc(F)cc2)c1,–,"inconclusive: 126 µM [inhibitor, partial curve, poor fit]"

Structure (SMILES),"activity change, negative = inhibition",Potency
COC(=O)c1ccc2c(=O)n(CCCCCC(=O)N3CCN(c4ccc(Cl)cc4)CC3)c(=O)[nH]c2c1,inactive: -13.7%,–
CCOCCCNCC(=O)N1CCN(S(=O)(=O)c2ccc(C)cc2)CC1,–,"inconclusive: 0.282 µM [inhibitor, full curve, poor fit]"
Cc1ccc(C(=O)O)cc1NC(=O)C1CCN(S(=O)(=O)c2ccc3c(c2)OCCO3)CC1,–,"inconclusive: 50.1 µM [inhibitor, partial curve, poor fit]"
O=C(O)CNS(=O)(=O)c1ccc2c(c1)Cc1cc(S(=O)(=O)NCC(=O)O)ccc1-2,–,active: 8.91 µM
COc1cccc(/C=C(/C#N)C(=O)c2c[nH]c3cccc(C)c23)c1,inactive: -24.6%,–
Cc1ccc(S(=O)(=O)N2[C@@H](c3ccccc3F)C(C(=O)O)=CC[C@H]2c2cccc(Cl)c2)cc1,inactive: -21.3%,–
Cn1c(=O)c2c(ncn2CC(=O)N(CCc2cccs2)Cc2cccs2)n(C)c1=O,–,"inconclusive: 158 µM [inhibitor, partial curve, poor fit]"
COc1ccc(C2NC(=O)NC(C)=C2[N+](=O)[O-])cc1 (stereo unspecified),–,"inconclusive: 31.6 µM [inhibitor, partial curve, poor fit]"
Clc1ccccc1Cn1nnc(-c2ccccc2)n1,inactive: -4.31%,–
O=C1/C(=C/c2cccs2)Oc2cc(O)ccc21,–,"inactive and inconclusive: 39.8 µM [inhibitor, single point]"
c1ccc(CN2CCN(c3ncnc4scc(-c5ccccc5)c34)CC2)cc1,inactive: 63.7%,–
COCCNC(=O)C(C)[C@@H]1CCc2c(C)cc(OC)c(C)c2C1 (stereo partly specified),inactive: 35.5% [at 176 µM],–
CNC(=O)c1c(NC(=O)c2ccc(S(=O)(=O)N(C)c3ccccc3)cc2)sc2c1CCN(C(C)C)C2,inactive: 0%,–
COc1ccc(C(O)(CCc2ccccc2)CCN2CCCCC2)cc1 (stereo unspecified),–,"inconclusive: 50.1 µM [inhibitor, partial curve, poor fit]"
CCCSc1nnc2c(n1)OC(c1cccs1)Nc1ccc(Br)cc1-2 (stereo unspecified),–,"inconclusive: 44.7 µM [inhibitor, partial curve, poor fit]"
COc1ccc(S(=O)(=O)Nc2ccc3c(c2)CC(=O)N([C@@H](C)CO)C[C@H](C)[C@@H](CN(C)S(=O)(=O)c2ccc(F)cc2)O3)cc1,–,"inconclusive: 50.1 µM [inhibitor, partial curve, poor fit]"
CCNC(=O)N(C)[C@H]1C[C@H]2c3[nH]c4cccc(-c5ccc6c(c5)OCO6)c4c3CCN2C[C@H]1[C@H](C)O,–,"inconclusive: 28.2 µM [inhibitor, full curve, poor fit]"
Nc1cc(Cl)ccc1Sc1ccccc1,inactive: -13.2%,–
CCN1C(=O)C2(CCN(S(=O)(=O)Cc3ccc(Cl)cc3)CC2)c2ccccc21,–,"inconclusive: 39.8 µM [inhibitor, partial curve]"
C/C(=N\NC(=S)NC(C)C)c1ccc(Cl)s1,–,active: 44.7 µM
Cc1c(Cl)cccc1NC(=O)Nc1ccc2snnc2c1,inactive: 0%,–
Oc1c(C(c2ccccc2F)N2CCCC2)sc2nc(-c3ccco3)nn12 (stereo unspecified),–,"inconclusive: 50.1 µM [inhibitor, partial curve, poor fit]"

# Nothing new here: 3 of the compounds above.
Structure (SMILES),"activity change, negative = inhibition",Potency
N#CCOc1ccc2c(=O)c(-c3ccc(Cl)cc3)c(C(F)(F)F)oc2c1,inactive: -8.67%,–
CC(C)(CNC(=O)CCc1ncc(-c2ccccc2F)o1)N1CCOCC1,inactive: 18.9%,–
C=CCNC(=O)Nc1cc(C(=O)NC)ccc1Cl,inactive: -30.4%,–
